# From PubChem BioAssay AID1471 (National Center for Advancing Translational Sciences (NCATS), 2008)
# Several values for one entry are separate records, joined by “and”; a condition that tells them apart may be missing. Identical values can stand only once. Among all 230,000 compounds or so, about 310 (0.13%) were called active. The inconclusive results got no clear call from the source; some entries with a clear call stand among them for comparison. Calls follow the shape of the dose curve; as a rule, active = well fitted activation curve with a large enough effect; inconclusive = small, poorly fitted or top-dose-only effect; inactive = no such curve, though single readings can be large or run the other way. Where the call is inconclusive, the potency comes from a doubtful curve fit. Some compounds were tested as several samples or in several runs, with calls that do not always agree.
# Assay: qHTS Multiplex Assay to Identify Dual Action Probes in a Cell Model of Huntington: Cytoprotection (ATP); also: nearly all actives have a fitted effect of over 45% in size;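 as to cytoprotection (ATP increase): toxic huntingtin expression switched on by the ecdysone agonist tebufenozide; % of control where 0% means no effect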
# Details: PC12 HTT-Q103 induced, ATP luminescence, 40 h; cytoprotection (ATP increase): at 56.4 µM (top of the series) unless noted
# Procedure, shortened: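 ATP quantification (ATPlite) reports survival of PC12 cells in which tebufenozide, 100 nM final, switches on Htt exon 1 with 103 glutamines linked to GFP; compounds are titrated.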
# Potency is read from the fitted curve at half-maximal effect.
Compound,cytoprotection (ATP increase),Potency
O=C1C2CC=C(Cl)CC2C(=O)N1CC1Cc2ccccc2CO1 (stereo not given),inactive: -35.4%,
N#CC1=C(N)Oc2n[nH]c(-c3ccccc3)c2C12C(=O)Nc1ccccc12 (stereo not given),inactive: -23% [at 10 µM],
COc1ccc(OC)c(-n2c(=S)[nH]c3cc(C(=O)N4CCCCC4)ccc3c2=O)c1,,"inconclusive: 0.251 µM [activator, full curve, poor fit]"
O=CCCCC=O,,"inconclusive: 0.1 µM [activator, full curve, poor fit]"
Cc1cccc(Nc2nc(N)c(C#N)c(CC#N)c2C#N)c1,,"inconclusive: 0.447 µM [activator, full curve, poor fit]"
O=C(O)COc1ccc(C(=O)c2cccs2)c(Cl)c1Cl,,"inconclusive: 0.0056 µM [activator, full curve, poor fit]"
CCCCOc1ccc(C(=O)CCN2CCCCC2)cc1,,"inconclusive: 0.251 µM [activator, full curve]"
CCc1nnc(NC(=O)C2CCCN(S(=O)(=O)c3ccc(OC)cc3)C2)s1 (stereo not given),,"inconclusive: 3.16 µM [activator, single point]"
Cc1ccc(NC(=O)Cn2nc([N+](=O)[O-])c(Br)c2C)cc1C,,"inconclusive: 1.26 µM [activator, full curve, poor fit]"
CCOC(=O)C(=CNCC(=O)OC)C(=O)OCC,inactive: 11.3% [at 10 µM],
CC(C)=CCCC1(C)C=Cc2c(O)c3c(c(CC=C(C)C)c2O1)OC12C(=CCCC1C(C)(C)O[C@@]2(C/C=C(\C)C(=O)O)C(=O)O)C3=O (stereo not given in full),,"inconclusive: 22.4 µM [activator, single point]"
NC(CCC(=O)O)C12CC3CC(CC(C3)C1)C2 (stereo not given),,"inconclusive: 35.5 µM [activator, single point]"
COc1cccc(Cn2c(=O)c(-c3cc(F)cc(F)c3)nc3cnc(N4CCNCC4)nc32)c1,inactive: -102%,
CCCNc1nc2c(c(=O)n(C)c(=O)n2C)n1Cc1ccc(F)cc1,inactive: -2.95% [at 10 µM],
Cc1ccc(OCC(=O)Nc2nnn(C)n2)c(C)c1,inactive: -0.354%,
Cc1c(C=O)c2ccccn2c1C(=O)c1ccc(Cl)c([N+](=O)[O-])c1,,"inconclusive: 20 µM [activator, single point]"
Cc1cccc(NC(=O)c2c(-c3ccccc3)noc2C)n1,,active: 2.24 µM
CC(C)C[C@@H](CC(=O)N[C@H](CC(=O)N[C@@H]1CCCC[C@H]1C(=O)N[C@H](CC(=O)N[C@@H](CCC(=O)O)CC(=O)O)Cc1ccccc1)C(C)C)NC(=O)[C@@H]1CCCC[C@H]1N,,"inconclusive: 0.562 µM [activator, full curve, poor fit]"
Cc1cc(C)c2c(CC(=O)O)c(C)[nH]c2c1,,"inconclusive: 0.631 µM [activator, single point]"
COc1ccccc1N=c1c2c([N+](=O)[O-])cc([N+](=O)[O-])cc2n(O)n1-c1ccccc1OC,,"inconclusive: 6.31 µM [activator, single point]"
N#Cc1c(Sc2ncc(C(F)(F)F)cc2Cl)nsc1C/C=N\OCc1ccccc1Br,inactive: 10.8% [at 10 µM],
O=C(NC1CCCCC1)N1CCCC1,,"inconclusive: 3.16 µM [activator, single point]"
COc1cc2c(cc1NC(=O)c1cccc(S(=O)(=O)N(C)C)c1)oc1ccccc12,,"inconclusive: 5.62 µM [activator, single point]"

Compound,cytoprotection (ATP increase),Potency
O=C(Cc1ccc(Br)cc1)Nc1ncc([N+](=O)[O-])s1,inactive: 2.15% [at 10 µM],
N[C@]1(C(=O)O)CCc2cc(P(=O)(O)O)ccc21,inactive: 1.78%,
CCn1ccnc1CN(C)Cc1cn[nH]c1-c1ccc(F)cc1F,inactive: 8.6% [at 10 µM],
COC(=O)c1nn(-c2cccc(Cl)c2)ccc1=O,,"inconclusive: 6.31 µM [activator, single point]"
CCN1CCN(C(=O)NC2CC(=O)N(c3ccc(OC)cc3)C2)CC1 (stereo not given),,"inconclusive: 5.62 µM [activator, partial curve, poor fit]"
O=C(CCl)NCCN1C(=O)S/C(=C\c2cccnc2)C1=O,inactive: -17.3%,
CCCCn1c(SCC(=O)N(CC)C2CCS(=O)(=O)C2)nc2cc(S(N)(=O)=O)ccc21 (stereo not given),,"inconclusive: 0.562 µM [activator, full curve, poor fit]"
CCCCC1=CC2=CC(=O)C(C)(OC(=O)CC)C(=O)C2=CN1c1ccccc1 (stereo not given),inactive: 2.5% [at 10 µM] and inactive: -12.5% [at 10 µM],
COC(=O)c1cc(=O)[nH]c(=O)[nH]1,inactive: 1.5% [at 10 µM],
O=C(O)C1CSC2(c3ccc(Br)cc3)CCC(=O)N12 (stereo not given),,"inconclusive: 31.6 µM [activator, single point]"
COc1cccc(CC(=O)N2CCc3nc(-c4ccccc4)c4c(c3C2)CO[C@@H](C)C4)c1,inactive: -13.7% [at 10 µM],
CCOc1cc(CO)cc(Br)c1OCC(N)=O,inactive: -32.9%,
CC#CCC1(C(=O)OC)C(=O)NC[C@H]1c1ccccc1 (stereo not given in full),,"inconclusive: 10 µM [activator, single point]"
O=c1[nH]c(SCc2cccc([N+](=O)[O-])c2)nc2[nH]ncc12,,"inconclusive: 0.891 µM [activator, partial curve]"
CCCCN1C(=O)CC(C(=O)O)C1c1ccc(OC)cc1 (stereo not given),,"inconclusive: 1 µM [activator, single point]"
Cc1cc2c3c(cccc3n1)C(=O)c1ccccc1-2,inactive: -113%,
COc1cccc(NC(=O)N2CCC(n3nnc4ccccc43)CC2)c1,,"inconclusive: 5.62 µM [activator, single point]"
C=C(C)c1cccc(C(C)(C)NC(=O)N(Cc2ccccc2)Cc2ccco2)c1,,"inconclusive: 0.708 µM [activator, single point]"
COCCNC(=O)/C(C#N)=C/c1ccccc1Br,inactive: 16.7%,
CCOC(=O)c1cncc(O)c1,inactive: 8% [at 10 µM],
CC(CN(C)C)CN1c2ccccc2CCc2ccccc21 (stereo not given),,active: 1 µM
COP(=O)(OC)OC(c1ccc(Cl)cc1)P(=O)(OC)OC (stereo not given),,"inconclusive: 35.5 µM [activator, single point]"
